Data taken from doi:10.1101/2023.06.22.545931.
No constants are given. Whether binding was seen depends on the method and setting. In cells and extracts the contact can be indirect. Some results given as binding are weak or reduced against the parent protein; the word gives no strength. For part of these data: Tags and fused reporters may be left off the sequences shown.

Sequences of proteins named here, by UniProt entry; tags and fusion partners are left off.
UniProt Q92973: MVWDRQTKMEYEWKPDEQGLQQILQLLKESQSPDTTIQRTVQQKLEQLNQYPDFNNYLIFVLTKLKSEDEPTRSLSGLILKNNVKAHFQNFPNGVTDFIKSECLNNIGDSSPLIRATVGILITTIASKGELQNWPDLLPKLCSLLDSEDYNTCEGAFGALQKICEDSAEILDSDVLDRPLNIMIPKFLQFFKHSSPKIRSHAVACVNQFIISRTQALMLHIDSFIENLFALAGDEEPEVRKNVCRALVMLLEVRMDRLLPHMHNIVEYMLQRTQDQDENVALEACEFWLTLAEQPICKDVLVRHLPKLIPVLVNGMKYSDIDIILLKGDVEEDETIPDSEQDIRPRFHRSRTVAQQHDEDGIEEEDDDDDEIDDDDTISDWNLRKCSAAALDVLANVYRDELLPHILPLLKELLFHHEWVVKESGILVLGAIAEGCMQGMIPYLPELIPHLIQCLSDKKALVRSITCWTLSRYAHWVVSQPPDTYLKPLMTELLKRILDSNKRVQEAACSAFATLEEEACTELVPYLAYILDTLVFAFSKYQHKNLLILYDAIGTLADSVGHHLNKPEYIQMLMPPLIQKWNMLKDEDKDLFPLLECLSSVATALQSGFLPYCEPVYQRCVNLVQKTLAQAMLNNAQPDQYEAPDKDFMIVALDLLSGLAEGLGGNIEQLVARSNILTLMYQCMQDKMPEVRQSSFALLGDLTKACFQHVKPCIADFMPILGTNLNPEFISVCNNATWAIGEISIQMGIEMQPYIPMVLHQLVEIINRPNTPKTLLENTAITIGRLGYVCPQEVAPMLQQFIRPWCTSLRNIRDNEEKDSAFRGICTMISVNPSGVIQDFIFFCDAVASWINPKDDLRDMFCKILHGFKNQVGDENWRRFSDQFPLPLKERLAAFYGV

Legend:
[1] = molecular target: LgBiT/FLAG-tagged MX2(51-715) (human) (UniProt P20592); assay: split reporter
[2] = molecular target: LgBiT/FLAG-tagged MX2(26-715) (human) (UniProt P20592); assay: split reporter
[3] = molecular target: LgBiT/FLAG-tagged MX2(Δ26-90) (human) (UniProt P20592); assay: split reporter
[4] = molecular target: T1, LgBiT/FLAG-tagged MX2 (human) (UniProt P20592); assay: split reporter
T1 sequence: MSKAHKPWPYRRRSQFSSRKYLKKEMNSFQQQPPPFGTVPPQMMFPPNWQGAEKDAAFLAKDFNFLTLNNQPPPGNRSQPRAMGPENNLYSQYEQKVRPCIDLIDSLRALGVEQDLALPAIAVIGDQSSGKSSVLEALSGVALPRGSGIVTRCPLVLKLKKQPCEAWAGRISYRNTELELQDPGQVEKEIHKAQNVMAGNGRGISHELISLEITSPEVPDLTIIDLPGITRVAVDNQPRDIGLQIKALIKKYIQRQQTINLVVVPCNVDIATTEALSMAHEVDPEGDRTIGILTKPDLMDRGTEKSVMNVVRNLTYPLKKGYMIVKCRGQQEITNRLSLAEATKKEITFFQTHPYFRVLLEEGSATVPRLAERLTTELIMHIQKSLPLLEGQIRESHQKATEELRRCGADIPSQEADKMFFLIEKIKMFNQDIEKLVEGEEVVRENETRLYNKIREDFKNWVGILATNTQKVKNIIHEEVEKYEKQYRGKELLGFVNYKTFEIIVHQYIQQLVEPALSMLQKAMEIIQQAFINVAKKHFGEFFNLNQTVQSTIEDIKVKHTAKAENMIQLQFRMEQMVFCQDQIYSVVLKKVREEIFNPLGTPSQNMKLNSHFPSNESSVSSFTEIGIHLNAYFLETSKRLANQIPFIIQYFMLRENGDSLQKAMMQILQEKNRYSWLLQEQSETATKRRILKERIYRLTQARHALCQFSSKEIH

FLAG-tagged MX2 (human) = molecular target: T2, FLAG-tagged MX2 (human) (UniProt P20592); assay: co-IP
T2 sequence: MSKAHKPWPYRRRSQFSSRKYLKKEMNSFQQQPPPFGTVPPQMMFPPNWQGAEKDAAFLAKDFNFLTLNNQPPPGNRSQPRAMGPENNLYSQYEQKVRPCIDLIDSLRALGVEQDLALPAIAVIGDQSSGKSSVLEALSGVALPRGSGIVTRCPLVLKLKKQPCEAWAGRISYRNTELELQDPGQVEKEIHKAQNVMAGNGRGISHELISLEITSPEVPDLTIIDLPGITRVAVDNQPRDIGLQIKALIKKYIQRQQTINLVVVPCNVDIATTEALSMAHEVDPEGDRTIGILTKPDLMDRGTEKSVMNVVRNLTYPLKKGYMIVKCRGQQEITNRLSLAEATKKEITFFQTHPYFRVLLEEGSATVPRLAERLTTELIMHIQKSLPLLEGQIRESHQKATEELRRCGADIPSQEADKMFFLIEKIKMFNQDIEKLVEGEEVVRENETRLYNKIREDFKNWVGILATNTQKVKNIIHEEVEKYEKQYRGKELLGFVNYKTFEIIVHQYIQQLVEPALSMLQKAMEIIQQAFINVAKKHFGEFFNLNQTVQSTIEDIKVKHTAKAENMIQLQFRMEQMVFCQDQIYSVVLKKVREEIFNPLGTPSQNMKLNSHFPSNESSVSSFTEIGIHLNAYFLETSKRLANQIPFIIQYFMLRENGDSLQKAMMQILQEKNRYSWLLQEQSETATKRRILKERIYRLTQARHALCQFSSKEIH

[5] = molecular target: LgBiT/FLAG-tagged MX2(M574D) (human) (UniProt P20592); assay: split reporter
[6] = molecular target: LgBiT/FLAG-tagged MX2(K131A) (human) (UniProt P20592); assay: split reporter

Molecule: SmBiT/V5-tagged TNPO1 (from UniProt Q92973 1-898)
- binding [1]: no binding
- binding [2]: no binding
- binding [3]: no binding
- binding [4]: binds

B1: SmBiT/V5-tagged NUP35 (protein, UniProt Q8NFH5 1-326)
chain: MAAFAVEPQGPALGSEPMMLGSPTSPKPGVNAQFLPGFLMGDLPAPVTPQPRSISGPSVGVMEMRSPLLAGGSPPQPVVPAHKDKSGAPPVRSIYDDISSPGLGSTPLTSRRQPNISVMQSPLVGVTSTPGTGQSMFSPASIGQPRKTTLSPAQLDPFYTQGDSLTSEDHLDDSWVTVFGFPQASASYILLQFAQYGNILKHVMSNTGNWMHIRYQSKLQARKALSKDGRIFGESIMIGVKPCIDKSVMESSDRCALSSPSLAFTPPIKTLGTPTQPGSTPRISTMRPLATAYKASTSDYQVISDRQTPKKDESLVSKAMEYMFGW
- binding [4]: binds

B2: MX2-MUTT2A-TurboID (protein, UniProt P20592 1-715)
chain: MSKAHKPWPYRRRSQFSSRKYLKKEMNSFQQQPPPFGTVPPQMMFPPNWQGAEKDAAFLAKDFNFLTLNNQPPPGNRSQPRAMGPENNLYSQYEQKVRPCIDLIDSLRALGVEQDLALPAIAVIGDQSSGKSSVLEALSGVALPRGSGIVTRCPLVLKLKKQPCEAWAGRISYRNTELELQDPGQVEKEIHKAQNVMAGNGRGISHELISLEITSPEVPDLTIIDLPGITRVAVDNQPRDIGLQIKALIKKYIQRQQTINLVVVPCNVDIATTEALSMAHEVDPEGDRTIGILTKPDLMDRGTEKSVMNVVRNLTYPLKKGYMIVKCRGQQEITNRLSLAEATKKEITFFQTHPYFRVLLEEGSATVPRLAERLTTELIMHIQKSLPLLEGQIRESHQKATEELRRCGADIPSQEADKMFFLIEKIKMFNQDIEKLVEGEEVVRENETRLYNKIREDFKNWVGILATNTQKVKNIIHEEVEKYEKQYRGKELLGFVNYKTFEIIVHQYIQQLVEPALSMLQKAMEIIQQAFINVAKKHFGEFFNLNQTVQSTIEDIKVKHTAKAENMIQLQFRMEQMVFCQDQIYSVVLKKVREEIFNPLGTPSQNMKLNSHFPSNESSVSSFTEIGIHLNAYFLETSKRLANQIPFIIQYFMLRENGDSLQKAMMQILQEKNRYSWLLQEQSETATKRRILKERIYRLTQARHALCQFSSKEIH
- binding (FLAG-tagged MX2 (human)): binds

B3: SmBiT/V5-tagged SAMD4A (protein, UniProt Q9UPU9 1-718)
chain: MMFRDQVGVLAGWFKGWNECEQTVALLSLLKRVSQTQARFLQLCLEHSLADCAELHVLEREANSPGIINQWQQESKDKVISLLLTHLPLLKPGNLDAKVEYMKLLPKILAHSIEHNQHIEESRQLLSYALIHPATSLEDRSALAMWLNHLEDRTSTSFGGQNRGRSDSVDYGQTHYYHQRQNSDDKLNGWQNSRDSGICINASNWQDKSMGCENGHVPLYSSSSVPTTINTIGTSTSTILSGQAHHSPLKRSVSLTPPMNVPNQPLGHGWMSHEDLRARGPQCLPSDHAPLSPQSSVASSGSGGSEHLEDQTTARNTFQEEGSGMKDVPAWLKSLRLHKYAALFSQMTYEEMMALTECQLEAQNVTKGARHKIVISIQKLKERQNLLKSLERDIIEGGSLRIPLQELHQMILTPIKAYSSPSTTPEARRREPQAPRQPSLMGPESQSPDCKDGAAATGATATPSAGASGGLQPHQLSSCDGELAVAPLPEGDLPGQFTRVMGKVCTQLLVSRPDEENISSYLQLIDKCLIHEAFTETQKKRLLSWKQQVQKLFRSFPRKTLLDISGYRQQRNRGFGQSNSLPTAGSVGGGMGRRNPRQYQIPSRNVPSARLGLLGTSGFVSSNQRNTTATPTIMKQGRQNLWFANPGGSNSMPSRTHSSVQRTRSLPVHTSPQNMLMFQQPEFQLPVTEPDINNRLESLCLSMTEHALGDGVDRTSTI
- binding [5]: binds
- binding [6]: binds
- binding [4]: binds
